# Measurements: the supplement of paper PMC6411743
# Sequences of proteins named here, by UniProt entry; tags and fusion partners are left off. A change or cut given only in a name is not applied to a line headed by its entry.
# UniProt Q8NHG8: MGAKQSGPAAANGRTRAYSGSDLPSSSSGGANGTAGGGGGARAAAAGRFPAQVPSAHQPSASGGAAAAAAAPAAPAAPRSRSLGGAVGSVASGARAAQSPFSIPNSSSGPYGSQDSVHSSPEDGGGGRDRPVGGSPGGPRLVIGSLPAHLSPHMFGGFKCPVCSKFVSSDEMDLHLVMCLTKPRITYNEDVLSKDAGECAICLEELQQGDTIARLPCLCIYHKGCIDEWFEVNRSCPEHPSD
# UniProt Q86YC3: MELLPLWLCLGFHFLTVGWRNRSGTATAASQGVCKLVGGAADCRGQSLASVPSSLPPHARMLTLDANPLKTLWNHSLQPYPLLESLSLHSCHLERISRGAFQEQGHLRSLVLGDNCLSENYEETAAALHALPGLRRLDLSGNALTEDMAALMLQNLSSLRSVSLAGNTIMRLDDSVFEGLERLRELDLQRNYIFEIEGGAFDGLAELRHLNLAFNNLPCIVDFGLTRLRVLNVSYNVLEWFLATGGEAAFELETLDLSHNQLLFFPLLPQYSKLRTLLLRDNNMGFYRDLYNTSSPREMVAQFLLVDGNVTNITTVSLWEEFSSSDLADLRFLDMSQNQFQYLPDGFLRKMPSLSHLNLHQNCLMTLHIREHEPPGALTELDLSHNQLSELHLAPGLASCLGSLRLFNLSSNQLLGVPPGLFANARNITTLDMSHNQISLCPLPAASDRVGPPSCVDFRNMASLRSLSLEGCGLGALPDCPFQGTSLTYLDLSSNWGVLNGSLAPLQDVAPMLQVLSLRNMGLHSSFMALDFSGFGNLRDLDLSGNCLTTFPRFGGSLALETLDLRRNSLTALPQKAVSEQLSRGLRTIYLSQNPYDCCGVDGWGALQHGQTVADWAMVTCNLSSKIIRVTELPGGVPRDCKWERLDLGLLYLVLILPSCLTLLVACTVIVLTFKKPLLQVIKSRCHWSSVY
# UniProt Q8IYB7: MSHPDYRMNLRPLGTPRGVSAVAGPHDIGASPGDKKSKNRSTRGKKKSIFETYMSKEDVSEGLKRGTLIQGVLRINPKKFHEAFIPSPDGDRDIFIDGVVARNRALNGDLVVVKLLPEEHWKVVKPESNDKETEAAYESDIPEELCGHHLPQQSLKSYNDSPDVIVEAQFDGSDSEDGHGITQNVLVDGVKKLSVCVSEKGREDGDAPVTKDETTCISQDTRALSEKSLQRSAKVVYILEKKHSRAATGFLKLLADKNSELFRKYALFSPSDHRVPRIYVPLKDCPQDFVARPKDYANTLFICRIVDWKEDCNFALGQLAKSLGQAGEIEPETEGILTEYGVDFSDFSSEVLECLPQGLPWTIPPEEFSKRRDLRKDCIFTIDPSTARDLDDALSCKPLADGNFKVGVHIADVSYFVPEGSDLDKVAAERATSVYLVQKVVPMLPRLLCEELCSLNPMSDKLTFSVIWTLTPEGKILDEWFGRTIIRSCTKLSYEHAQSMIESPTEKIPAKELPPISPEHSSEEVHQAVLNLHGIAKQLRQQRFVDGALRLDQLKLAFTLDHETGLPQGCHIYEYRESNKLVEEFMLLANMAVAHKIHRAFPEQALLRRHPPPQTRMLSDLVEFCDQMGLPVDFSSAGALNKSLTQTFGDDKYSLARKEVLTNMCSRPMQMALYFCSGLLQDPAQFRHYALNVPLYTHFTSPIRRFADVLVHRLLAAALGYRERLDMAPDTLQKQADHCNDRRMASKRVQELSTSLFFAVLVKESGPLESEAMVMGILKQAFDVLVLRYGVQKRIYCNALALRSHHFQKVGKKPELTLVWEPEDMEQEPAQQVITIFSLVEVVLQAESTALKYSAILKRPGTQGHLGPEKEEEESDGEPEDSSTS
# UniProt Q8IYW5, whole entry: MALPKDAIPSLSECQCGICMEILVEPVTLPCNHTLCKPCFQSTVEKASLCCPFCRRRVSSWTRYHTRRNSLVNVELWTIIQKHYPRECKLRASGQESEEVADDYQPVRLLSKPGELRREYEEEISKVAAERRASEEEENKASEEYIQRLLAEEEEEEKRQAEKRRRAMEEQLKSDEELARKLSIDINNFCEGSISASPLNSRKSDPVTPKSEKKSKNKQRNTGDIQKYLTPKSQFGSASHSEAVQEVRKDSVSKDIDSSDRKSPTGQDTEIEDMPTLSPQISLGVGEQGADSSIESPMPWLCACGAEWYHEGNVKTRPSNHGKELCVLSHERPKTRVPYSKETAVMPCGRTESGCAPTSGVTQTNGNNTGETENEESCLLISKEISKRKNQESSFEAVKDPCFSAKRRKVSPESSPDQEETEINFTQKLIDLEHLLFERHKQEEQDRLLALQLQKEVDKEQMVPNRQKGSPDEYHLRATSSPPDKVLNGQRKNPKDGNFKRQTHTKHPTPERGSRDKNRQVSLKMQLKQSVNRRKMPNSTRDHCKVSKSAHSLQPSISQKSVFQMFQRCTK
# UniProt Q8NI08: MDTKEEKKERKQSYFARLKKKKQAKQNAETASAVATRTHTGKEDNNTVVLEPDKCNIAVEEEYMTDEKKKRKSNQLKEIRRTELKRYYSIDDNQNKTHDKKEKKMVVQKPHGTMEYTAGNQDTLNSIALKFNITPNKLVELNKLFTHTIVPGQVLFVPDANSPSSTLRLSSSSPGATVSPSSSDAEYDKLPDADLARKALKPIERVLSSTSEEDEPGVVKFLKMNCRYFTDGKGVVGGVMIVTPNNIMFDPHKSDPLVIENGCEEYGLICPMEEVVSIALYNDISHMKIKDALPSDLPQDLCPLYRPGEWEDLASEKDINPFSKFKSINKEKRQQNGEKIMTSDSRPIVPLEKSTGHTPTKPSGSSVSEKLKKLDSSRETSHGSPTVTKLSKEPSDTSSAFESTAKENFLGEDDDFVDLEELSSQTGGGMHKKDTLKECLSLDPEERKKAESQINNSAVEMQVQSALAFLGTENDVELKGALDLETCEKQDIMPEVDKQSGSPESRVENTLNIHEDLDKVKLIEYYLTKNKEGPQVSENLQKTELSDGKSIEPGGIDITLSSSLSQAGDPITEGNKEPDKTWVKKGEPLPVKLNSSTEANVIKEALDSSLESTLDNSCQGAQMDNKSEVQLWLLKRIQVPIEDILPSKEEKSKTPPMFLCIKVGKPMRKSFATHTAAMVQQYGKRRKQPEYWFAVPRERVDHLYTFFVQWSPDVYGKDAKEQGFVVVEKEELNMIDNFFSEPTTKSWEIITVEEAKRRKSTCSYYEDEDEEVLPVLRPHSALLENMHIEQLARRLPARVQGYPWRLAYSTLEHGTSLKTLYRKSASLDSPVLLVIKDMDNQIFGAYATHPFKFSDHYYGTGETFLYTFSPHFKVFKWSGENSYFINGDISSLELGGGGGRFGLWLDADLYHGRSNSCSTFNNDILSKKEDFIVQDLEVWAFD
# UniProt Q8N6Q8: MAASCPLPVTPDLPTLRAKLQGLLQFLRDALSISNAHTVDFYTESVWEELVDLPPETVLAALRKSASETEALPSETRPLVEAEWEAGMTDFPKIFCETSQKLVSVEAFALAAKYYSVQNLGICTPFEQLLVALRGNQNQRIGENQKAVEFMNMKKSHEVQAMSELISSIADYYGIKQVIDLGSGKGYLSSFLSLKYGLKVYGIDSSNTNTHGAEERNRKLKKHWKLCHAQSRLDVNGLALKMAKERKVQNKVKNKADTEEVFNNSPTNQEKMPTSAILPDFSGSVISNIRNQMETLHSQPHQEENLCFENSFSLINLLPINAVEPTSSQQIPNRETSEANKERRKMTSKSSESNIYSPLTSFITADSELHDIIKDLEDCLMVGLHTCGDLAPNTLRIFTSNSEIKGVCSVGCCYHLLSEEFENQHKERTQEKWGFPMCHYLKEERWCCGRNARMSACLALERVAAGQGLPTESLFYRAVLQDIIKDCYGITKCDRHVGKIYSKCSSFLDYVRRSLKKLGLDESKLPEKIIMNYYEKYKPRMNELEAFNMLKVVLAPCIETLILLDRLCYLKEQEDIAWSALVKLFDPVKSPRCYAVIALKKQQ
# UniProt Q8IUI8: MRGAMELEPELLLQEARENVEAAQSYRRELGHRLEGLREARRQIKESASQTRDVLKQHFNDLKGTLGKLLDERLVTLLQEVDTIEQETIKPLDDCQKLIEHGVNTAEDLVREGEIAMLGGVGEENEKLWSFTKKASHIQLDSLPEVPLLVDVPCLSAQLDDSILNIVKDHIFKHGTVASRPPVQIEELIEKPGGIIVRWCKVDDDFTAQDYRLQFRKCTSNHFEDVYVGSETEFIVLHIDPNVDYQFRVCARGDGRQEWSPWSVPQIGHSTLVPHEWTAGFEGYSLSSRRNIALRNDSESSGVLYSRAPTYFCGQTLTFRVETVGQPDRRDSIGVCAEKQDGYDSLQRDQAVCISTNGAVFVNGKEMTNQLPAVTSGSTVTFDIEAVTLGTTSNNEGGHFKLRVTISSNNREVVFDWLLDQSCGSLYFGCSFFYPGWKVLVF
# UniProt Q8NFQ8: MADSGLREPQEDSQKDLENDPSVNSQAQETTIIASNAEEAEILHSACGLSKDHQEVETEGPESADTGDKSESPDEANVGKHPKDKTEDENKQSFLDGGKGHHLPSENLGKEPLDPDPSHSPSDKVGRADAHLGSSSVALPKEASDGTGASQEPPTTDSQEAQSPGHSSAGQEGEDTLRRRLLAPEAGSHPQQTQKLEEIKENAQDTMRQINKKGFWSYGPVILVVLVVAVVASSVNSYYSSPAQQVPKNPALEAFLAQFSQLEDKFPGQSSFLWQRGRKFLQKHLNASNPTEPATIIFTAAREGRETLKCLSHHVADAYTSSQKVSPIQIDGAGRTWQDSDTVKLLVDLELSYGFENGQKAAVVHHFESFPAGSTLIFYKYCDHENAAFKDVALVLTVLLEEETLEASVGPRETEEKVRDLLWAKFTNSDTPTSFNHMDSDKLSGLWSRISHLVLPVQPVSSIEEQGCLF
# UniProt Q8NEZ5: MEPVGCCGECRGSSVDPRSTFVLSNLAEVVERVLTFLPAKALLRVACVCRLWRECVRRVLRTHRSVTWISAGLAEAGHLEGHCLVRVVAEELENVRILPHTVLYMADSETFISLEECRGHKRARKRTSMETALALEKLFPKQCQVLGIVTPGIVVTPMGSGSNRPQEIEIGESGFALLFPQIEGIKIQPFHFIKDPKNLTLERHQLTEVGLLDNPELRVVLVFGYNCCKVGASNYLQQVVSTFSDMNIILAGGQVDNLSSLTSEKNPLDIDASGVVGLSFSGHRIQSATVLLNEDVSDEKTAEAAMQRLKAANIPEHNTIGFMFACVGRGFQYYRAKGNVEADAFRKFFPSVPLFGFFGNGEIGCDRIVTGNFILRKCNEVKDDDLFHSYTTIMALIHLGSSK
# UniProt Q8N5W9: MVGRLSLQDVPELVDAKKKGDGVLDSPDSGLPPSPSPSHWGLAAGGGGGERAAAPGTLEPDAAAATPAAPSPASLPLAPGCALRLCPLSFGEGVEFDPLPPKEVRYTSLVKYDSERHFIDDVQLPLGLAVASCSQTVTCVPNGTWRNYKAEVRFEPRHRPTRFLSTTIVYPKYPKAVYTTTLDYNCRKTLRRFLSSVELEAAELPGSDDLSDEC
# UniProt Q8IUR0, whole entry: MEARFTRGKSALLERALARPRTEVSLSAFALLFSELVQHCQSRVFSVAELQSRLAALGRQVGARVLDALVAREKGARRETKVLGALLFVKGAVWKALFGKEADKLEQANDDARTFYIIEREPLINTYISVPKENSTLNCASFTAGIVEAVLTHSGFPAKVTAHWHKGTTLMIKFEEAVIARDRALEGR
# UniProt Q8NFH5: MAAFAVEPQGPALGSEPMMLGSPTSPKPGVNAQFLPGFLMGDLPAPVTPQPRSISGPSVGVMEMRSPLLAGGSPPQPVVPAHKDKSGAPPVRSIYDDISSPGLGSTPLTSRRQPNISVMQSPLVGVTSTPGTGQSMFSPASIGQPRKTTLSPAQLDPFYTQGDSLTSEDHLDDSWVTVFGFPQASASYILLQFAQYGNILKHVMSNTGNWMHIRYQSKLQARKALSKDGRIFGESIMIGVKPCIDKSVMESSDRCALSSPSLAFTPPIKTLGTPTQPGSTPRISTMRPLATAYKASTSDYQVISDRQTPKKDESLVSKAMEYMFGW
# UniProt Q8NEF9: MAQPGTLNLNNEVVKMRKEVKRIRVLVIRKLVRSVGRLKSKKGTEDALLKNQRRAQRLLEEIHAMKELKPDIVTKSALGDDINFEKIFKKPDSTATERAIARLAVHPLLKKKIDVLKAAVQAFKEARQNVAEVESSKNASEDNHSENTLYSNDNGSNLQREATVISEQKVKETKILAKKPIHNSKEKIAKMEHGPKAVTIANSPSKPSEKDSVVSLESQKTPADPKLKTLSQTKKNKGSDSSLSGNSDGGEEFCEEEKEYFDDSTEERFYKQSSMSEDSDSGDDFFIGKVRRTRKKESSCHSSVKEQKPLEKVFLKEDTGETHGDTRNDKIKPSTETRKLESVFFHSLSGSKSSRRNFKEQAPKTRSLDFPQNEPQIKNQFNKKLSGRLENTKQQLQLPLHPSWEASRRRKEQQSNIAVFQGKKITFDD
# UniProt Q8TCA0: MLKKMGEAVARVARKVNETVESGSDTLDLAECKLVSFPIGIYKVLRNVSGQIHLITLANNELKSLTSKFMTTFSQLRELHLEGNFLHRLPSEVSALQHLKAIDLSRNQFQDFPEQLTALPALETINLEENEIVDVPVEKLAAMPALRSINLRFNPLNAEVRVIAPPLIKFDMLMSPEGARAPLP
# ± gives the standard deviation of the averaged measurements. This is one part of the list.
# Compound: Nc1nc2c(ncn2[C@@H]2O[C@H](COP(=O)(O)OP(=O)(O)OP(=O)(O)O)[C@@H](O)[C@H]2O)c(=O)[nH]1 [guanosine triphosphate]
# Assay: NP40-soluble protein abundance relative to vehicle (solubility fold change) (ratio); higher = more soluble protein in presence of GTP
# Outline: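 In three independent experiments, Jurkat crude lysate made by Dounce homogenisation was treated for 10 min at room temperature and then 3 min at 37 °C with eight concentrations ranging from 0.1 to 10 mM. It was then solubilised with 0.8% NP40 plus benzonase for 60 min at 4 °C and ultracentrifuged. The supernatant was TMT-labelled for LC-MS/MS, and each value is the fold change against the detergent-processed vehicle for the same replicate, using vsn-normalised intensities.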
Target,NP40-soluble protein abundance (concentration: 0.1mM),NP40-soluble protein abundance (concentration: 0.5mM),NP40-soluble protein abundance (concentration: 1mM),NP40-soluble protein abundance (concentration: 2mM),NP40-soluble protein abundance (concentration: 4mM),NP40-soluble protein abundance (concentration: 6mM),NP40-soluble protein abundance (concentration: 8mM),NP40-soluble protein abundance (concentration: 10mM)
TXNDC5 (UniProt Q8NBS9),0.938 ± 0.1,0.963 ± 0.096,0.949 ± 0.13,0.924 ± 0.12,0.902 ± 0.12,0.928 ± 0.11,0.922 ± 0.1,0.911 ± 0.078
UniProt Q8TEA7 and related entries,1.06 ± 0.13,1.07 ± 0.15,0.861 ± 0.12,0.968 ± 0.094,0.916 ± 0.088,0.913 ± 0.084,0.817 ± 0.081,0.833 ± 0.038
ZNRF2 (UniProt Q8NHG8),0.884 ± 0.11,0.799 ± 0.12,0.902 ± 0.12,0.902 ± 0.16,0.924 ± 0.11,0.879 ± 0.13,0.924 ± 0.093,0.952 ± 0.14
UniProt Q8N9R8 and related entries,1.08 ± 0.048,1.06 ± 0.11,1.04 ± 0.044,1.07 ± 0.073,1.1 ± 0.07,1.04 ± 0.08,1.05 ± 0.072,1.06 ± 0.039
UniProt Q86YC3,1.13 ± 0.17,1.18 ± 0.26,1.13 ± 0.095,1.19 ± 0.13,1.15 ± 0.14,1.11 ± 0.18,1.12 ± 0.16,1.12 ± 0.097
UniProt Q8IYB7 and related entries,1.04 ± 0.038,1.04 ± 0.035,0.993 ± 0.043,1.03 ± 0.033,0.976 ± 0.025,0.94 ± 0.023,0.978 ± 0.033,0.951 ± 0.043
THOC2 (UniProt Q8NI27),1.14 ± 0.054,1.33 ± 0.14,1.39 ± 0.15,1.72 ± 0.29,2.05 ± 0.4,2.18 ± 0.51,2.23 ± 0.54,2.16 ± 0.48
RNF168 (UniProt Q8IYW5),0.969 ± 0.084,0.926 ± 0.065,1.02 ± 0.11,1.04 ± 0.17,1.03 ± 0.16,1.07 ± 0.11,1.14 ± 0.081,1.11 ± 0.12
UniProt Q8NI08 and related entries,0.979 ± 0.011,0.927 ± 0.017,0.928 ± 0.045,0.931 ± 0.078,0.907 ± 0.052,0.936 ± 0.11,0.901 ± 0.029,0.908 ± 0.054
UniProt Q8N6Q8,1.07 ± 0.067,0.921 ± 0.061,1.06 ± 0.029,1.01 ± 0.22,0.983 ± 0.09,0.952 ± 0.051,0.902 ± 0.038,0.937 ± 0.11
UniProt Q8TAT6 and related entries,1.01 ± 0.04,1 ± 0.05,0.926 ± 0.014,0.93 ± 0.054,0.919 ± 0.036,0.921 ± 0.037,0.893 ± 0.02,0.852 ± 0.042
UniProt Q8IUI8 and related entries,1.05 ± 0.019,0.9965 ± 0.0096,0.962 ± 0.029,0.97 ± 0.044,0.961 ± 0.067,0.901 ± 0.028,0.954 ± 0.077,0.957 ± 0.098
UniProt Q8IYS2 and related entries,1.14 ± 0.035,1.08 ± 0.065,1 ± 0.031,1.03 ± 0.087,0.959 ± 0.062,0.997 ± 0.069,0.996 ± 0.013,0.945 ± 0.021
PPIL4 (UniProt Q8WUA2),0.997 ± 0.03,1.03 ± 0.049,0.995 ± 0.029,0.96 ± 0.064,0.971 ± 0.062,0.982 ± 0.059,1.02 ± 0.022,0.977 ± 0.047
TOR1AIP2 (UniProt Q8NFQ8),0.76 ± 0.027,0.805 ± 0.066,0.809 ± 0.042,0.872 ± 0.043,0.742 ± 0.066,0.872 ± 0.084,0.756 ± 0.034,0.907 ± 0.047
DCP2 (UniProt Q8IU60),0.983 ± 0.037,1 ± 0.054,0.961 ± 0.069,0.973 ± 0.074,0.946 ± 0.061,0.952 ± 0.05,0.962 ± 0.071,0.979 ± 0.047
UniProt Q8N999 and related entries,0.999 ± 0.092,1.04 ± 0.09,0.957 ± 0.066,0.983 ± 0.044,0.929 ± 0.07,0.977 ± 0.049,0.949 ± 0.09,0.927 ± 0.041
UniProt Q8N684 and related entries,1.02 ± 0.054,1.15 ± 0.05,1.27 ± 0.051,1.34 ± 0.12,1.45 ± 0.14,1.51 ± 0.19,1.57 ± 0.24,1.53 ± 0.23
UniProt Q8N4C8 and related entries,1.1 ± 0.13,0.993 ± 0.014,1.1 ± 0.039,0.9658 ± 0.0049,0.966 ± 0.052,0.989 ± 0.027,1.103 ± 0.0074,1.06 ± 0.045
FBXO22 (UniProt Q8NEZ5),1.02 ± 0.024,0.985 ± 0.053,0.91 ± 0.024,0.917 ± 0.078,0.947 ± 0.061,0.9 ± 0.053,0.865 ± 0.071,0.843 ± 0.1
GPD1L (UniProt Q8N335),0.994 ± 0.03,0.975 ± 0.012,0.92 ± 0.029,0.942 ± 0.035,0.91 ± 0.017,0.904 ± 0.027,0.892 ± 0.05,0.898 ± 0.055
NANP (UniProt Q8TBE9),1.07 ± 0.15,0.981 ± 0.11,0.954 ± 0.14,0.982 ± 0.16,0.904 ± 0.12,0.877 ± 0.14,0.891 ± 0.2,0.861 ± 0.15
RFLNB (UniProt Q8N5W9),1.03 ± 0.09,1 ± 0.11,1.15 ± 0.21,1.06 ± 0.15,1.12 ± 0.091,1.11 ± 0.18,1.12 ± 0.036,1.2 ± 0.12
UniProt Q8IUR0 and related entries,1.03 ± 0.08,1.01 ± 0.1,0.936 ± 0.14,0.994 ± 0.16,1.01 ± 0.16,0.929 ± 0.2,0.901 ± 0.066,0.918 ± 0.11
PPTC7 (UniProt Q8NI37),0.997 ± 0.057,0.967 ± 0.0097,1.01 ± 0.078,0.932 ± 0.019,0.852 ± 0.024,0.888 ± 0.021,0.941 ± 0.023,0.95 ± 0.021
UniProt Q8NFH5 and related entries,0.99 ± 0.078,0.941 ± 0.046,1.04 ± 0.081,1.05 ± 0.13,1.07 ± 0.12,1.16 ± 0.13,1.24 ± 0.069,1.42 ± 0.14
SRFBP1 (UniProt Q8NEF9),0.947 ± 0.019,0.897 ± 0.064,1.01 ± 0.038,1.03 ± 0.083,1.06 ± 0.072,1.04 ± 0.09,1.02 ± 0.12,1.1 ± 0.055
NKAP (UniProt Q8N5F7),0.935 ± 0.015,0.947 ± 0.038,1.1 ± 0.014,1.03 ± 0.07,1.03 ± 0.022,1.1 ± 0.012,1.1 ± 0.087,1.24 ± 0.088
UniProt Q8TCA0 and related entries,1.05 ± 0.014,0.943 ± 0.062,0.948 ± 0.061,0.98 ± 0.053,0.909 ± 0.059,0.893 ± 0.057,0.851 ± 0.11,0.881 ± 0.077
UniProt Q8N9B5 and related entries,1.03 ± 0.056,1.01 ± 0.14,1.05 ± 0.096,1 ± 0.11,0.997 ± 0.077,1.04 ± 0.081,0.918 ± 0.074,0.901 ± 0.063

# Reprinted at random: 2 entries already listed
Target,NP40-soluble protein abundance (concentration: 0.1mM),NP40-soluble protein abundance (concentration: 0.5mM),NP40-soluble protein abundance (concentration: 1mM),NP40-soluble protein abundance (concentration: 2mM),NP40-soluble protein abundance (concentration: 4mM),NP40-soluble protein abundance (concentration: 6mM),NP40-soluble protein abundance (concentration: 8mM),NP40-soluble protein abundance (concentration: 10mM)
UniProt Q8N4C8 and related entries,1.1 ± 0.13,0.993 ± 0.014,1.1 ± 0.039,0.9658 ± 0.0049,0.966 ± 0.052,0.989 ± 0.027,1.103 ± 0.0074,1.06 ± 0.045
DCP2 (UniProt Q8IU60),0.983 ± 0.037,1 ± 0.054,0.961 ± 0.069,0.973 ± 0.074,0.946 ± 0.061,0.952 ± 0.05,0.962 ± 0.071,0.979 ± 0.047
